In all, about 33,000 sequences were measured (“E-score (-0.5 to 0.5)”: median about -0.016, highest 2% from about 0.3 on). This is one part of the list.
target: T1, Yer184c (UniProt P39961); assay: PBM E-score (8-mer binding enrichment) (E-score (-0.5 to 0.5)); higher = stronger / more preferred TF binding; settings: protein concentration: 100 nM; construct: GST-full length
T1 sequence: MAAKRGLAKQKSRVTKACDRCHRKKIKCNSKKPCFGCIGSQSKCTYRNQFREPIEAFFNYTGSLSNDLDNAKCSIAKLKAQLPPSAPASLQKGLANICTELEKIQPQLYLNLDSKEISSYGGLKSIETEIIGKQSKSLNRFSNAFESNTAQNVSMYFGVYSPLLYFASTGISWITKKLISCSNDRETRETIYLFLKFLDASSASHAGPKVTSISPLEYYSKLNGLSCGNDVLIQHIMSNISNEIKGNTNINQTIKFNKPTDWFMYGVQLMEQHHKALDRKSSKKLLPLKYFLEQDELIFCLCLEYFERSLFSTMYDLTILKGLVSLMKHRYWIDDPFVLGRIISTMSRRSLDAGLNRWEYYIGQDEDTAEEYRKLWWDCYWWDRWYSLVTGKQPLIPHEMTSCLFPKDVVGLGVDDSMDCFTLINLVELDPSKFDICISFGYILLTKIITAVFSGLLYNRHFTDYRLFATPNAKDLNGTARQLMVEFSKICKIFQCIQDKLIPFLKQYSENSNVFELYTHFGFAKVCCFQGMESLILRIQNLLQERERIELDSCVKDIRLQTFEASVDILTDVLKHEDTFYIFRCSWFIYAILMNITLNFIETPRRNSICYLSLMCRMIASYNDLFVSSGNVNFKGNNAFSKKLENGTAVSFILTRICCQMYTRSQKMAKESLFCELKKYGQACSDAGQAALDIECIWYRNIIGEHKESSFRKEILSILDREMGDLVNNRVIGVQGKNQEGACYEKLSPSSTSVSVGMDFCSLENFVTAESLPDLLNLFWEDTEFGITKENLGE
In short: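 Universal all-10-mer Agilent arrays, double-stranded by primer extension on fresh or once-stripped slides, were probed with about 100-200 nM GST-tagged yeast transcription factors made by PURExpress. Fluorescent anti-GST detected bound protein, and masliner normalised the scans. E-scores from the Universal PBM Analysis Suite were given to each ungapped eight-base word pooled with its reverse complement.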

Sequence	PBM E-score
GAGTTCCC	-0.0116
AGAGTATA	-0.169
ACCTTCTG	-0.0235
AATATTCA	0.037
CAACAGTA	0.0627
AAGTCCCA	-0.275
CTGAGTGA	0.24
AGTAGATC	0.0008
AAAAAGCG	0.14
ACCGACAA	0.13
GGGGCTCA	-0.278
CCCTATCC	-0.194
CACTTACA	-0.0257
AAAGAAAT	0.231
GCTGTCGA	-0.0787
ATTCCCCG	0.117
CATTTGAG	0.0174
CACTGCTG	-0.206
AATTTCAT	0.0864
CGGGACCA	-0.098
AAAGAGCG	0.00323
AACAAGCC	-0.04

Sequence	PBM E-score
GCCCCACA	-0.265
GCGGGTCC	-0.0615
GCTATTCC	-0.132
CGTCCTTA	-0.0106
AATATAGG	0.111
TCGAACAA	0.218
CGTGGGAC	-0.0911
CTGGCTCA	-0.00502
ACATCTGG	-0.0303
GAAGGAGC	-0.31
CTCCACGA	-0.0321
GAATTGAC	0.00201
CCAGGGCG	-0.185
ATGCCTTG	-0.0435
CATATTCG	0.0661
GCGTATAA	0.0897
GTAGACAA	0.0722
ATCTATAG	-0.0342
ACATCAAG	-0.0605
CTGATCCA	-0.176
CGCGCTCC	0.0945
AACTCCGG	0.424

Sequence	PBM E-score
GAGTGCTA	-0.138
AGTTTGTC	0.0484
ATCGCTAC	-0.0453
ACGGTATG	0.0268
AGTTACCG	0.292
TGAACCAA	0.18
AAATCAAA	0.13
ACGTACTA	-0.0775
CGATTCTC	0.00611
GAGGGGAA	-0.102
GACCCGCA	-0.112
CCTACTCC	-0.129
GCGCTCCA	-0.16
CGGACGAA	0.353
ACGGGCCC	0.0185
GGACTTGA	-0.175
ATTCTTGG	0.232
ATTAAACC	0.113
AGACCCCT	-0.37
ATCAATGA	0.2
GGCCCACC	-0.215
ATTGATGG	-0.00116

28 entries from above, with bars between the fields.
Sequence | PBM E-score
GAGTTCCC | -0.0116
AGAGTATA | -0.169
ACCTTCTG | -0.0235
AATATTCA | 0.037
AAGTCCCA | -0.275
CATTTGAG | 0.0174
CACTGCTG | -0.206
GCGGGTCC | -0.0615
GCTATTCC | -0.132
CGTCCTTA | -0.0106
AATATAGG | 0.111
TCGAACAA | 0.218
CTCCACGA | -0.0321
CCAGGGCG | -0.185
ACATCAAG | -0.0605
CTGATCCA | -0.176
ATCGCTAC | -0.0453
ACGTACTA | -0.0775
CGATTCTC | 0.00611
GACCCGCA | -0.112
CCTACTCC | -0.129
GCGCTCCA | -0.16
CGGACGAA | 0.353
ACGGGCCC | 0.0185
ATTCTTGG | 0.232
ATCAATGA | 0.2
GGCCCACC | -0.215
ATTGATGG | -0.00116

The list goes on:

Sequence	PBM E-score
CGACGGAG	0.115
CACCGGTG	0.0474
CCTACGAA	-0.115
CCGTTCAC	-0.211
GAAGGTCA	-0.19
ACCTCCTC	-0.135
CGCATCGC	-0.097
CCCTTCTC	-0.349
GAATCTCC	0.0252
CTTGTGTA	0.0286
CCGAAAGA	0.215
ATCCTCCG	0.118
GACAATAA	0.131
CTAGTAAC	-0.0898
CGACACTC	0.058
ATCGTCGC	-0.0233
CAGCGCGG	0.00233
CACAGCTG	-0.204
ATTGTACC	0.0761
CTCACGGC	0.0169
GGTACCGA	0.169
TACGCCGA	0.237

Sequence	PBM E-score
AAATAGGG	-0.0569
GGCACTTA	-0.112
CAGTTAGG	-0.149
AGTCTTAG	-0.125
GAAAAACC	0.204
AAATTTAC	0.244
CTCGGTGC	-0.0357
CGCACTGC	-0.116
ACGCAGGG	-0.0548
AAGCGGGG	-0.312
CGTTTAAG	0.0519
AGCTCAGC	-0.234
AACCATCG	0.185
AACTGTAC	-0.0839
GTGAATCA	-0.0703
AAATGTGT	0.115
AGACGTCT	-0.214
TCAATGCA	-0.0376
CTGATGTA	-0.00146
AGCGAATA	0.066
ACCTTGAG	-0.0404
GGGTAAAC	0.0809

— the supplement of paper PMC3334620
